Some entries share one result that the patent states for a list of compounds.
These compounds were tested against T1, human recombinant P2X7 receptors (Homo sapiens, UniProt Q99572) (assay: Fluorescent Imaging Plate Reader (FLIPR) Ca Assay (BzATP-induced intracellular calcium increase)). Conditions: HEK293 or U-2OS cells expressing human P2X7; 60 μM BzATP; or a slightly modified version of the assay.
T1 construct: expressed in transfected cells
T1 sequence (Q99572 1-595): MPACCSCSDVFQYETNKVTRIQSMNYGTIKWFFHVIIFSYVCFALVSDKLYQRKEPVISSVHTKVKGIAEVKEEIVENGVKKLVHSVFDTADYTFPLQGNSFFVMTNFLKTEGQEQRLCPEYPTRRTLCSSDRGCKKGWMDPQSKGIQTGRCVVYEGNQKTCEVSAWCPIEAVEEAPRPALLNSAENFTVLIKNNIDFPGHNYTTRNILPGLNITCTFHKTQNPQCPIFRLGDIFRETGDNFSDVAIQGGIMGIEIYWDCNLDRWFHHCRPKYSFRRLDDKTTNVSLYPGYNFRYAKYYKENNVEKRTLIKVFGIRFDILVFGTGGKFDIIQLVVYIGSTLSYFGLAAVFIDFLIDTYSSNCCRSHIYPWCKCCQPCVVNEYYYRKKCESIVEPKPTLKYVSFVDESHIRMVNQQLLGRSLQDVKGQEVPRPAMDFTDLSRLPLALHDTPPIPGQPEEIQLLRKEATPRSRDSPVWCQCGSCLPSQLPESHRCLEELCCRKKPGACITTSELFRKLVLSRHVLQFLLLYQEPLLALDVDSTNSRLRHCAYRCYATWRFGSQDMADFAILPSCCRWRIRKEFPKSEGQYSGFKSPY
Assay type: cell-based

pIC50 in the FLIPR Ca Assay (blocking BzATP responses), ≥ 5:
O=C(c1cccc(C(F)(F)F)c1Cl)N1CCn2c(Br)nnc2C1 [Example 1, 3-Bromo-7-{[2-chloro-3-(trifluoromethyl)phenyl]carbonyl}-5,6,7,8-tetrahydro[1,2,4]triazolo[4,3-a]pyrazine]
O=C(c1cccc(C(F)(F)F)c1Cl)N1CCn2c(nnc2C(F)(F)F)C1 [Example 2, 7-{[2-chloro-3-(trifluoromethyl)phenyl]carbonyl}-3-(trifluoromethyl)-5,6,7,8-tetrahydro[1,2,4]triazolo [4,3-a]pyrazine]
CCc1nnc2n1CCN(C(=O)c1cccc(C(F)(F)F)c1Cl)C2 [Example 4, 7-{[2-chloro-3-(trifluoromethyl)phenyl]carbonyl}-3-ethyl-5,6,7,8-tetrahydro[1,2,4]triazolo [4,3-a]pyrazine]
CCc1nnc2n1CCN(C(=O)c1cccc(Cl)c1Cl)C2 [Example 5, 7-[(2,3-dichlorophenyl)carbonyl]-3-ethyl-5,6,7,8-tetrahydro[1,2,4]triazolo [4,3-a]pyrazine]
O=C(c1cccc(Cl)c1Cl)N1CCn2c(Br)nnc2C1 [Example 6, 3-bromo-7-[(2,3-dichlorophenyl)carbonyl]-5,6,7,8-tetrahydro[1,2,4]triazolo [4,3-a]pyrazine]
O=C(c1c(Cl)cc(Cl)cc1Cl)N1CCn2c(Br)nnc2C1 [Example 8, 3-bromo-7-[(2,4,6-trichlorophenyl)carbonyl]-5,6,7,8-tetrahydro[1,2,4]triazolo [4,3-a]pyrazine]
O=C(c1cccc(C(F)(F)F)c1F)N1CCn2c(Br)nnc2C1 [Example 9, 3-bromo-7-{[2-fluoro-3-(trifluoromethyl)phenyl]carbonyl}-5,6,7,8-tetrahydro[1,2,4]triazolo [4,3-a]pyrazine]
O=C(c1cccc(C(F)(F)F)c1Cl)N1CCn2c(nnc2-c2ccncc2)C1 [Example 10, 7-{[2-Chloro-3-(trifluoromethyl)phenyl]carbonyl}-3-(4-pyridinyl)-5,6,7,8-tetrahydro[1,2,4]triazolo[4,3-a]pyrazine]
O=C(c1cccc(C(F)(F)F)c1Cl)N1CCn2c(nnc2-c2ccncn2)C1 [Example 12, 7-{[2-chloro-3-(trifluoromethyl)phenyl]carbonyl}-3-(4-pyrimidinyl)-5,6,7,8-tetrahydro[1,2,4]triazolo[4,3-a]pyrazine]
O=C(c1cccc(C(F)(F)F)c1Cl)N1CCn2c(nnc2-c2ccccc2)C1 [Example 13, 7-{[2-Chloro-3-(trifluoromethyl)phenyl]carbonyl}-3-phenyl-5,6,7,8-tetrahydro[1,2,4]triazolo[4,3-a]pyrazine]
Cc1nnc2n1CCN(C(=O)c1cccc(C(F)(F)F)c1Cl)C2 [Example 15, 7-{[2-Chloro-3-(trifluoromethyl)phenyl]carbonyl}-3-methyl-5,6,7,8-tetrahydro[1,2,4]triazolo[4,3-a]pyrazine]
O=C(c1cccc(C(F)(F)F)c1Cl)N1CCn2c(nnc2-c2cccnc2)C1 [Example 16, 7-{[2-Chloro-3-(trifluoromethyl)phenyl]carbonyl}-3-(3-pyridinyl)-5,6,7,8-tetrahydro[1,2,4]triazolo[4,3-a]pyrazine]
COc1nnc2n1CCN(C(=O)c1cccc(C(F)(F)F)c1Cl)C2 [Example 17, 7-{[2-Chloro-3-(trifluoromethyl)phenyl]carbonyl}-3-(methyloxy)-5,6,7,8-tetrahydro[1,2,4]triazolo[4,3-a]pyrazine]
O=C(c1cccc(C(F)(F)F)c1Cl)N1CCn2c(nnc2N2CCCC2)C1 [Example 19, 7-{[2-chloro-3-(trifluoromethyl)phenyl]carbonyl}-3-(1-pyrrolidinyl)-5,6,7,8-tetrahydro[1,2,4]triazolo [4,3-a]pyrazine]
CN(C)c1nnc2n1CCN(C(=O)c1cccc(C(F)(F)F)c1Cl)C2 [Example 20, 7-{[2-chloro-3-(trifluoromethyl)phenyl]carbonyl}-N,N-dimethyl-5,6,7,8-tetrahydro[1,2,4]triazolo [4,3-a]pyrazine-3-amine]
CNc1nnc2n1CCN(C(=O)c1cccc(C(F)(F)F)c1Cl)C2 [Example 21, 7-{[2-chloro-3-(trifluoromethyl)phenyl]carbonyl}-N-methyl-5,6,7,8-tetrahydro[1,2,4]triazolo [4,3-a]pyrazine-3-amine]
O=C(c1cccc(C(F)(F)F)c1Cl)N1CCn2c(nnc2N2CCC2)C1 [Example 22, 3-(1-azetidinyl)-7-{[2-chloro-3-(trifluoromethyl)phenyl]carbonyl}-5,6,7,8-tetrahydro[1,2,4]triazolo [4,3-a]pyrazine]
O=C(c1cccc(C(F)(F)F)c1Cl)N1CCn2c(nnc2N2CCCCC2)C1 [Example 23, 7-{[2-chloro-3-(trifluoromethyl)phenyl]carbonyl}-3-(1-piperidinyl)-5,6,7,8-tetrahydro[1,2,4]triazolo [4,3-a]pyrazine]
O=C(c1cccc(C(F)(F)F)c1Cl)N1CCn2c(nnc2-c2ccc(F)cc2F)C1 [Example 24, 7-{[2-Chloro-3-(trifluoromethyl)phenyl]carbonyl}-3-(2,4-difluorophenyl)-5,6,7,8-tetrahydro[1,2,4]triazolo[4,3-a]pyrazine]
CC(C)(C)c1nnc2n1CCN(C(=O)c1cccc(C(F)(F)F)c1Cl)C2 [Example 25, 7-{[2-chloro-3-(trifluoromethyl)phenyl]carbonyl}-3-(1,1-dimethylethyl)-5,6,7,8-tetrahydro[1,2,4]triazolo [4,3-a]pyrazine]
Cc1cccc(-c2nnc3n2CCN(C(=O)c2cccc(C(F)(F)F)c2Cl)C3)n1 [Example 26, 7-{[2-chloro-3-(trifluoromethyl)phenyl]carbonyl}-3-(6-methyl-2-pyridinyl)-5,6,7,8-tetrahydro[1,2,4]triazolo [4,3-a]pyrazine]
O=C(c1ccc(F)cc1Cl)N1CCn2c(nnc2-c2ccccc2)C1 [Example 30, 7-[(2-Chloro-4-fluorophenyl)carbonyl]-3-phenyl-5,6,7,8-tetrahydro[1,2,4]triazolo[4,3-a]pyrazine]
O=C(c1cccc(C(F)(F)F)c1Cl)N1CCn2c(nnc2-c2ccc[nH]2)C1 [Example 38, 7-{[2-chloro-3-(trifluoromethyl)phenyl]carbonyl}-3-(1H-pyrrol-2-yl)-5,6,7,8-tetrahydro[1,2,4]triazolo [4,3-a]pyrazine]
O=C(c1ccc(F)cc1Cl)N1CCn2c(nnc2-c2cccnc2)C1 [Example 39, 7-[(2-chloro-4-fluorophenyl)carbonyl]-3-(3-pyridinyl)-5,6,7,8-tetrahydro[1,2,4]triazolo [4,3-a]pyrazine]
O=C(c1ccc(F)cc1Cl)N1CCn2c(nnc2-c2ccc(F)cn2)C1 [Example 40, 7-[(2-chloro-4-fluorophenyl)carbonyl]-3-(5-fluoro-2-pyridinyl)-5,6,7,8-tetrahydro[1,2,4]triazolo [4,3-a]pyrazine]
O=C(c1ccc(F)cc1Cl)N1CCn2c(nnc2-c2cccc(F)n2)C1 [Example 41, 7-[(2-chloro-4-fluorophenyl)carbonyl]-3-(6-fluoro-2-pyridinyl)-5,6,7,8-tetrahydro[1,2,4]triazolo [4,3-a]pyrazine]
O=C(c1cccc(C(F)(F)F)c1Cl)N1CCn2c(nnc2-c2cscn2)C1 [Example 42, 7-{[2-chloro-3-(trifluoromethyl)phenyl]carbonyl}-3-(1,3-thiazol-4-yl)-5,6,7,8-tetrahydro[1,2,4]triazolo[4,3-a]pyrazine]
O=C(c1cccc(C(F)(F)F)c1Cl)N1CCn2c(nnc2-c2cccnn2)C1 [Example 44, 7-{[2-chloro-3-(trifluoromethyl)phenyl]carbonyl}-3-(3-pyridazinyl)-5,6,7,8-tetrahydro[1,2,4]triazolo [4,3-a]pyrazine]
O=C(c1cccc(C(F)(F)F)c1Cl)N1CCn2c(nnc2-c2ccc(F)cn2)C1 [Example 45, 7-{[2-chloro-3-(trifluoromethyl)phenyl]carbonyl}-3-(5-fluoro-2-pyridinyl)-5,6,7,8-tetrahydro[1,2,4]triazolo[4,3-a]pyrazine]
O=C(c1ccc(F)cc1Cl)N1CCn2c(nnc2-c2ncccn2)C1 [Example 47, 7-[(2-chloro-4-fluorophenyl)carbonyl]-3-(2-pyrimidinyl)-5,6,7,8-tetrahydro[1,2,4]triazolo [4,3-a]pyrazine]

Source: US8501946B2 (Glaxo Group Limited, priority 2009, dated 2013)
